Experimental data from patent US12673942B2, “Azabicyclyl-substituted heterocycles as fungicides” (Bayer Aktiengesellschaft, priority 2020, dated 2026).
Some of these results come from one statement about several compounds together.

Key:
[1] = system: Colletotrichum lindemuthianum; experiment: In vivo preventive test on Colletotrichum lindemuthianum (leaf spot on bean); details: 500 ppm of active ingredient; preventive spray on bean; evaluated 7 days after inoculation
[2] = system: Alternaria brassicae; experiment: In vivo preventive test on Alternaria brassicae (leaf spot on radish or cabbage); details: 500 ppm of active ingredient; preventive spray on radish or cabbage; evaluated 6 days after inoculation
[3] = system: Pyrenophora teres; experiment: In vivo preventive test on Pyrenophora teres (net blotch on barley); details: 500 ppm of active ingredient; preventive spray on barley; evaluated 10 days after inoculation
[4] = system: Botrytis cinerea; experiment: In vivo preventive test on Botrytis cinerea (grey mould); details: 500 ppm of active ingredient; preventive spray on gherkin or cabbage; evaluated 4 to 5 days after inoculation
[5] = system: Sphaerotheca fuliginea; experiment: In vivo preventive test on Sphaerotheca fuliginea (powdery mildew on cucurbits); details: 500 ppm of active ingredient; preventive spray on gherkin; evaluated 8 days after inoculation

Measured: efficacy

Cc1ccc(C[C@@H]2CON=C(c3c(Oc4cccc(C(F)(F)F)c4)cnc4ccccc34)N2)c(C)c1 (racemic) [Compound I-004]
at least 70%: all assays above

Cc1ccc(CC2CNN=C(c3c(Oc4cccc(C(F)(F)F)c4)cnc4ccccc34)N2)c(C)c1 (racemic) [Compound I-010, 4-[(5RS)-5-(2,4-dimethylbenzyl)-1,4,5,6-tetrahydro-1,2,4-triazin-3-yl]-3-[3-(trifluoromethyl)phenoxy]quinoline]
at least 70%: [2] | [4]

Cc1cccc(Oc2nnc3ccccc3c2C2=NOCC(Cc3ccc(C)cc3C)N2)c1 (racemic) [Compound I-001, 4-[(5RS)-5-(2,4-dimethylbenzyl)-5,6-dihydro-4H-1,2,4-oxadiazin-3-yl]-3-(3-methylphenoxy)cinnoline]
at least 70%: all assays above

Cc1ccc(C[C@@H]2CON=C(c3c(Oc4cccc(C5CC5)c4)nnc4ccccc34)N2)c(C)c1 (racemic) [Compound I-003]
at least 70%: all assays above

Cc1ccc(C[C@@H]2CON=C(c3c(Oc4cccc(C(F)(F)F)c4)nnc4cc(C)ccc34)N2)c(C)c1 (racemic) [Compound I-005]
not listed: [5]
at least 70%: all other assays above

Cc1ccc(CC2CON=C(c3c(Oc4cccc(C5CC5)c4F)nnc4ccccc34)N2)c(C)c1 (racemic) [Compound I-006, 3-(3-cyclopropyl-2-fluorophenoxy)-4-[(5RS)-5-(2,4-dimethylbenzyl)-5,6-dihydro-4H-1,2,4-oxadiazin-3-yl]cinnoline]
at least 70%: all assays above

Cc1ccc(CC2CON=C(c3c(Oc4cccc(Cl)c4)nnc4ccccc34)N2)c(C)c1 (racemic) [Compound I-002, 3-(3-chlorophenoxy)-4-[(5RS)-5-(2,4-dimethylbenzyl)-5,6-dihydro-4H-1,2,4-oxadiazin-3-yl]cinnoline]
at least 70%: all assays above
